The labels stand for the following.
B1: il2ra_site2_3nfp_normal_mot_HHH_b1_02962_000000041_0001_43_56_H_._HHH_b2_06621_af2_0001_0000200008_0000001_0 (protein)
chain: SSSSSLEEEVERLLEEAEKAVENGNPEEARRLLQEATELAFRANNPELFFLIAELLFKLNQSSSS
B2: il2ra_site1_3nfp_normal_mot_7f2fc9564206058543fe500fefea0e08_0001_000000219_0001_1_13_H_._3b4a64fcac932a42eec55da33af97b30_0001_1_af2_0001_0000100003_0000001_0_ … (protein)
chain: DEEAKERVEEALERGDPELALEILKELAEKRNSRAAKRLLELLERLLRVDPEAVLRIIKKALRAL
B3: il2ra_site2_2erj_normal_mot_HHH_b1_02968_000000142_0001_22_39_H_._HHH_b2_06818_0001_0000300018_0000001_0 (protein)
chain: SSSSSSDVEEQVERLLEEAERIEDLREVYRLAVEALHLAAEARDQELLRLIWEVVERVSSSSSSS
B4: il2ra_site1_2b5i_normal_mot_HHH_b1_03447_af2_000000033_0001_43_57_H_._HHH_b2_06886_af2_0001_0000500027_0000001_0_1_af2pred_dldesign_0_af2pred (protein)
chain: SSSSSEKEAELDELADEAYRLARKGDKERFKEVAEKAKALAKELGDEKTVAELEYLEKKLSSSSS
B5: il2ra_site1_3nfp_normal_mot_HHH_b1_00042_af2_000000196_0001_42_57_H_._HHH_b1_07808_af2_0001_0000500059_0000001_0 (protein)
chain: SSSSDEELRLNRRFQELWKEAKKRNDEELLKELLELLKELAEELNDRVLEWLVRQLEEALNSSSS
B6: il2ra_site2_2erj_sap_23_mot_HHH_b1_06554_000000001_0001_44_57_H_._HHH_b1_06642_0001_0000500013_0000001_0_0001 (protein)
chain: SSSSDAAEHAAEVSVELLRLFKEGNEEELERLLKEAKEFVEERNDEHALKYLEFVEEDLRSSSSS
B7: il2ra_site2_3nfp_normal_mot_HHH_b1_03851_000000147_0001_21_38_H_._HHH_b1_04525_0001_0000600036_0000001_0 (protein)
chain: SSSSDEERREARELFEELQELLEENDKHAVFEVLMELFELAARTGDEEAARLVLEIYAQLRSSSS
B8: il2ra_site2_3nfp_sap_16_mot_HHH_b2_00429_000000100_0001_21_37_H_._ae1c9ea29156517b3605075ffbb42e44_0001_0002_0000200042_0000001_1_0001 (protein)
chain: SSSSSSDEEELAELLEELLERGDEEKLRKVVREAAHLAFEKGDHELFFLAAEALYSLASSSSSSS
B9: il2ra_site2_2erj_normal_mot_HHH_b2_06080_000000063_0001_42_56_H_._HHH_b2_01714_0001_0001400013_0000001_0_af2pred_0001_af2pred (protein)
chain: SSSSDLEEVLRELEEALAEGDEELIRKLFEEVEELAKHVPDEELRSEAERLLLFAELLLRHSSSS
B10: il2ra_site2_2erj_sap_12_mot_HHH_b1_08231_000000052_0001_20_37_H_._HHH_b1_06388_af2_0001_0000300009_0000001_0_0001 (protein)
chain: SSSSDEEEEKLEKFVEELVEKFNLDERTEELLRESLKVALSAGVNPELIQRFLERSAKAQSSSSS
B11: il2ra_site2_3nfp_normal_mot_HHH_b2_08072_af2_000000052_0001_39_54_H_._HHH_b2_06188_0001_0000700030_0000001_0_af2pred_0001_1_af2pred_swapped (protein)
chain: SSSSSSSELEHRAFILALELREEGDEEAAKELLELLYRVLTENDPELERELKELLEELSSSSSSS
B12: il2ra_site2_2erj_normal_mot_HHH_b1_01239_000000175_0001_43_57_H_._HHH_b1_01477_0001_0000100001_0000001_0_1_af2pred_0001_1_af2pred_swapped (protein)
chain: SSSSSDREEVEEEVRELLEEAERIPDLREALKLLQEASQLADEIGDPELFELVLEVLQRLSSSSS
B13: il2ra_site1_1z92_sap_17_mot_8b347a0de1c9f22fb2e23e9a493f891b_0001_000000262_0001_37_51_H_._46d73865503fbedcaf0f3a45445d594c_0001_0001_0000100012_0000001_0_0001_ … (protein)
chain: SSSSNSREILLESAEEMLRLAEEKNDEEALKRLLEQLERFLKFAGDPRVEELIEELRKLLGSSSS
B14: il2ra_site2_3nfp_sap_30_mot_HHH_b1_06577_af2_000000152_0001_20_36_H_._0211eb4cb6cc506d3757c28afaeb928d_0001_0001_0000100024_0000001_0_0001_af2pred_0001_af2pred (protein)
chain: SSSSDLKEKVEKVLEEVEELERRGNPEEARKLLAELADEIYENQDFEAFAILVKFFEERDSSSSS
B15: il2ra_site2_3nfp_sap_24_mot_HHH_b1_00399_af2_000000233_0001_42_56_H_._HHH_b2_05884_0001_0000300011_0000001_0_0001_af2pred_0001_1_af2pred_swapped (protein)
chain: DSLEELAQEAVEEGDPALLDAVAVALALEEAGVPPEEIEKRVKRFLELLGVPPEEIEEILELLKK
B16: il2ra_site2_3nfp_sap_15_mot_HHH_b1_06677_000000199_0001_20_36_H_._254fc17bb08746de5dae9ef87d53b160_0001_0001_0000100001_0000001_0_0001 (protein)
chain: SSSSSDKEEAEERVEELLEEAKHVSPEEQRELLKEASQLAWKVNDFELFAKVNELIAELASSSSS
B17: il2ra_site2_2erj_sap_26_mot_HHH_b1_05386_000000188_0001_22_38_H_._fd0a9d037eb77d912a268a88faf82d0b_0001_0001_0000200003_0000001_0_0001 (protein)
chain: SSSSSEDSVRVWELLKELAEAAERGDEELFEELFEEAEKLAKEGNNPLLERFVKLQYERWSSSSS
B18: il2ra_site2_3nfp_normal_mot_HHH_b1_00660_af2_000000090_0001_40_57_H_._HHH_b1_05943_0001_0000500031_0000001_0_af2pred_0001_af2pred (protein)
chain: SSSSSDEEEEEVEELMEEAKHVPDPEKREELLARARLLAYELKNFELFAKLLEILERLNSSSSSS

This is one part of the list.

Here are results for 18 molecules from article PMC10163288.

The assay concerns the target il2ra, P01589. The assay can be described thus: yeast display titration.
B1: the “apparent Kd” value is “inactive: no binding seen”.

As for B2, the “apparent Kd” value is “inactive: no binding seen”. B3: the “apparent Kd” value was “inactive: no binding seen”.

With B4, the “apparent Kd” value is “inactive: no binding seen”. In the case of B5, the “apparent Kd” value was “inactive: no binding seen”.

As for B6, the “apparent Kd” value is “inactive: no binding seen”. The same measure for B7: “inactive: no binding seen”; for B8: “inactive: no binding seen”. The same measure for B9: “inactive: no binding seen”. To B10 belongs “inactive: no binding seen”; to B11, “inactive: no binding seen”; to B12, “inactive: no binding seen”. Regarding B13, the “apparent Kd” value is “inactive: no binding seen”. The same measure for B14: “inactive: no binding seen”; for B15: “inactive: no binding seen”; for B16: “inactive: no binding seen”. Regarding B17, the “apparent Kd” value was “inactive: no binding seen”. To B18 belongs “inactive: no binding seen”.
